# Counter-ions that a name gives are not always drawn. This is one part of the list. This data set is noisy: repeats of one test often differ as much as different tests do.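 JEG3 cells stably carry tetracycline-induced wild-type human LRH-1, a heavily sumoylated nuclear receptor. APOC3 and MUC1 are SUMO-sensitive transcripts, raised by SUMO-less LRH-1 or UBC9 knockdown, measured by RT-qPCR against TBP and DMSO controls. A robust Z-score above +2 or below -2 marked a primary hit before toxicity and TBP filtering.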
# System: JEG3 expressing hLRH-1
# Test: APOC3 transcript change (ddCt vs TBP and DMSO), Z-score over library; higher = higher APOC3 expression
# Conditions: 10 µM; time (hr): 24
row,SMILES,APOC3 transcript change (Z-score)
1,Cc1c(OCC(F)(F)F)ccnc1CS(=O)c1nc2ccccc2[nH]1 (stereo not drawn) [lansoprazole],-0.0619
2,CCO/C(O)=C1\C(COCCN)=NC(C)=C(C(=O)OC)C1c1ccccc1Cl (stereo not drawn) [amlodipine besylate],0.449
3,CCC(=O)O[C@H]1[C@H](O[C@@H]2[C@@H](C)[C@H](O[C@H]3C[C@@](C)(OC)[C@@H](O)[C@H](C)O3)[C@@H](C)C(=O)O[C@H](CC)[C@@](C)(O)[C@H](O)[C@@H](C)C(=O)[C@H](C)C[C@@]2(C)O)O[C@H](C)C[C@@H]1N(C)C [erythromycin estolate],0.215
4,NCCNCCNCCN [trientine hydrochloride],0.375
5,Cc1ccnc(NS(=O)(=O)c2ccc(N)cc2)n1 [sulfamerazine],1.29
6,Cc1cc(-n2c(=O)[nH]c(=O)n(C)c2=O)ccc1Oc1ccc(SC(F)(F)F)cc1 [toltrazuril],1.57
7,O=C(CCCCCCC(=O)Nc1ccccc1)NO [vorinostat],-0.957
8,CNCCC(Oc1ccc(C(F)(F)F)cc1)c1ccccc1 (stereo not drawn) [Fluoxetine hydrochloride],-0.218
9,NCCCC(O)(P(=O)(O)O)P(=O)(O)O [alendronate sodium],-0.247
10,CNC[C@H](O)[C@@H](O)[C@H](O)[C@H](O)CO [meglumine],0.28
11,Cc1ccc(C(=O)C(C)CN2CCCCC2)cc1 (stereo not drawn) [tolperisone hydrochloride],-1.06
12,CCN(CC)CCOC(=O)C1(C2CCCCC2)CCCCC1 [dicyclomine hydrochloride],-0.0926
13,NC(=O)c1ncn([C@@H]2O[C@H](CO)[C@@H](O)[C@H]2O)n1 [ribavirin],0.943
14,O=c1c(Cc2c(O)oc3ccccc3c2=O)c(O)oc2ccccc12 [dicumarol],-0.686
15,CCN(CC)CCOC(=O)c1ccc(N)cc1 [procaine hydrochloride],-0.108
16,CC(C)CCCC(C)N (stereo not drawn) [octodrine],1.25
17,CC(C)(C)CC(C)(C)c1cc(Cc2cc(C(C)(C)CC(C)(C)C)cc(-n3nc4ccccc4n3)c2O)c(O)c(-n2nc3ccccc3n2)c1 [bisoctrizole],-0.0962
18,CN1CCN(CCCN2c3ccccc3Sc3ccc(Cl)cc32)CC1 [Prochlorperazine dimaleate],0.867
19,CC(=O)O[C@H]1C[C@@]2(C)[C@@H](C[C@@H](O)[C@H]3[C@@]4(C)CC[C@@H](O)[C@@H](C)[C@@H]4CC[C@@]32C)/C1=C(\CCC=C(C)C)C(=O)O [fusidic acid],-0.63
20,CC(C)N1CCN(c2ccc(OC[C@H]3CO[C@](Cn4cncn4)(c4ccc(Cl)cc4Cl)O3)cc2)CC1 [terconazole],-0.401
21,CC(=O)N[C@@H](CS)C(=O)O [acetylcysteine],0.409
22,Cc1cccc(Nc2ccncc2S(=O)(=O)NC(=O)NC(C)C)c1 [torsemide],0.158

# Three compounds from above, arranged by length of the SMILES, high to low.
row,SMILES,APOC3 transcript change (Z-score)
8,CNCCC(Oc1ccc(C(F)(F)F)cc1)c1ccccc1 (stereo not drawn) [Fluoxetine hydrochloride],-0.218
7,O=C(CCCCCCC(=O)Nc1ccccc1)NO [vorinostat],-0.957
16,CC(C)CCCC(C)N (stereo not drawn) [octodrine],1.25

# More results:

row,SMILES,APOC3 transcript change (Z-score)
1,Cc1cc(O)cc(C)c1Cl [chloroxylenol],0.435
2,Oc1cccc(O)c1 [resorcinol],1.02
3,CC[C@H]1OC(=O)[C@H](C)[C@@H](O[C@H]2C[C@@](C)(OC)[C@@H](O)[C@H](C)O2)[C@H](C)[C@@H](O[C@@H]2O[C@H](C)C[C@H](N(C)C)[C@H]2O)[C@](C)(O)C[C@@H](C)CN(C)[C@H](C)[C@@H](O)[C@]1(C)O [azithromycin],0.423
4,CC(N)CCCC(C)(C)O (stereo not drawn) [heptaminol hydrochloride],-0.957
5,O=C(NC(Cc1cc(O)nc2ccccc12)C(=O)O)c1ccc(Cl)cc1 (stereo not drawn) [rebamipide],-1.07
6,CCOC(=O)CC(=O)N1CCSC1COc1ccccc1OC (stereo not drawn) [moguisteine],-1.17
7,C1N2CN3CN1CN(C2)C3 [methenamine],0.569
8,CN(C)CCCN1c2ccccc2Sc2ccccc21 [promazine hydrochloride],0.84
9,CCOC(=S)SSC(=S)OCC [dixanthogen],-0.107
10,CC1(C)O[C@@H]2CC3C4C[C@H](F)C5=CC(=O)C=CC5(C)C4C(O)CC3(C)[C@]2(C(=O)CO)O1 (stereo partly drawn) [flunisolide],0.583
11,CC(=O)Oc1c(C)c(C)c2c(c1C)CCC(C)(CCCC(C)CCCC(C)CCCC(C)C)O2 (stereo not drawn) [alpha-tochopheryl acetate],-0.403
12,N[C@@H]1[C@@H](O)[C@H](O)[C@@H](CO)O[C@H]1O [glucosamine hydrochloride],-0.281
13,CCC(C)CCCCC(=O)NC(CCN)C(=O)NC(C(=O)NC(CCN)C(=O)NC1CCNC(=O)C(C(C)O)NC(=O)C(CCN)NC(=O)C(CCN)NC(=O)C(CC(C)C)NC(=O)C(Cc2ccccc2)NC(=O)C(CCN)NC1=O)C(C)O (stereo not drawn) [polymyxin b sulfate],0.0514
14,C/C=C(/C)C(=O)O[C@@H]1[C@H](OC(C)=O)[C@@]2(CO)C(CC1(C)C)C1=CCC3[C@@]4(C)CC[C@H](O[C@@H]5O[C@H](C(=O)O)[C@@H](O[C@@H]6O[C@H](CO)[C@@H](O)[C@H](O)[C@H]6O)[C@H](O)[C@H]5O[C@@H]5O[C@H](CO)[C@@H](O)[C@H](O)[C@H]5O)[C@](C)(CO)C4CC[C@@]3(C)[C@]1(C)C[C@H]2O (stereo partly drawn) [beta-escin],-1.13
15,C[C@@H]1C[C@H]2[C@@H]3CCC4=CC(=O)C=C[C@]4(C)[C@@]3(Cl)[C@@H](O)C[C@]2(C)[C@@]1(OC(=O)c1ccco1)C(=O)CCl [mometasone furoate],0.663
16,CN1CCN(CCCN2c3ccccc3Sc3ccc(C(F)(F)F)cc32)CC1 [Trifluoperazine dihydrochloride],0.98
17,CN(C)CCOc1ccc(/C(=C(/CCCl)c2ccccc2)c2ccccc2)cc1 [toremiphene citrate],0.913
18,C[C@]12CCC(=O)C=C1[C@@H]1C[C@@H]1[C@H]1[C@@H]3[C@@H]4C[C@@H]4[C@@]4(CCC(=O)O4)[C@@]3(C)CC[C@@H]12 [drospirenone],0.0446
19,C[N+](C)(C)CC(O)CC(=O)O (stereo not drawn) [carnitine hydrochloride],-0.141
20,CCCOc1ccc(C(=O)OCCN(CC)CC)cc1N [proparacaine hydrochloride],-0.489
21,Clc1ccc(CSC(Cn2ccnc2)c2ccc(Cl)cc2Cl)cc1 (stereo not drawn) [sulconazole nitrate],0.0586
